Test results from US20080103212A1, “Treatment of fruit in storage facility with solid derived diphenylamine anti scald agent” (priority 2006, published 2008).

Test: DPA residue on apples by gas chromatography after aerosol application of molten DPA (Example 1)
Set-up: species or system apples (Granny Smith, Red Delicious)
[1] = Red Delicious, cold air storage

**Q.** For c1ccc(Nc2ccccc2)cc1 [DPA, diphenylamine], which “DPA RESIDUE 8.5 Weeks” value (Granny Smith, cold air storage) is on record?
**A.** 1.9 PPM and 2.8 PPM and 2.7 PPM and 2.6 PPM

**Q.** What about the “DPA RESIDUE 14 Weeks” value (Granny Smith, cold air storage) of the same compound?
**A.** 0.8 PPM and 1.0 PPM and 1.1 PPM and 0.9 PPM

**Q.** What about the “DPA RESIDUE 18 Weeks” value (Granny Smith, cold air storage) of the same compound?
**A.** 0.6 PPM and 0.7 PPM and 0.5 PPM

**Q.** What about the “DPA RESIDUE 20 weeks” value (Granny Smith, 20 weeks, cold air storage) of the same compound?
**A.** 0.6 PPM and 0.8 PPM and 0.5 PPM

**Q.** What about the “DPA RESIDUE 8.5 Weeks” value [1] of the same compound?
**A.** 4.4 PPM and 4.2 PPM and 3.4 PPM and 3.6 PPM

**Q.** What about the “DPA RESIDUE 14 Weeks” value [1] of the same compound?
**A.** 2.5 PPM and 3.1 PPM and 2.3 PPM and 2.8 PPM

**Q.** What about the “DPA RESIDUE 16 Hours” value (Red Delicious, 16 Hours after application, Table 2) of the same compound?
**A.** 1.1 PPM and 1.3 PPM and 1.0 PPM and 1.2 PPM

**Q.** And the “DPA RESIDUE 18 Weeks” value [1]?
**A.** 1.3 PPM and 1.9 PPM and 1.2 PPM and 1.6 PPM

“And” between values parts separate entries of the source, which are not always exact repeats. Identical values can stand only once.
